In PMC4849736:
No constants are given. Whether binding was seen depends on the method and setting.

Target: Golgi phosphoprotein 3 (GOLPH3), cytosolic pool (human (endogenous in MCF 10A, MCF7, MDA-MB-231)), Q9H4A6
Assay: SEC; cytosolic fractions of MCF 10A, MCF7 and MDA-MB-231 cells on a Superose 6 10/300 GL column in 50 mM Tris HCl, 0.5 M NaCl, pH 8.0; fractions read by SDS-PAGE and immunoblot with antibody to GOLPH3; column calibrated with proteins of known Stokes radii
Conditions: remark: other sources report otherwise

binding: no binding
B1: Golgi phosphoprotein 3 (GOLPH3), cytosolic pool, Q9H4A6 1-298 (protein)
chain: MTSLTQRSSGLVQRRTEASRNAADKERAAGGGAGSSEDDAQSRRDEQDDDDKGDSKETRLTLMEEVLLLGLKDREGYTSFWNDCISSGLRGCMLIELALRGRLQLEACGMRRKSLLTRKVICKSDAPTGDVLLDEALKHVKETQPPETVQNWIELLSGETWNPLKLHYQLRNVRERLAKNLVEKGVLTTEKQNFLLFDMTTHPLTNNNIKQRLIKKVQEAVLDKWVNDPHRMDRRLLALIYLAHASDVLENAFAPLLDEQYDLATKRVRQLLDLDPEVECLKANTNEVLWAVVAAFTK
